# Measurements reported in doi:10.1101/2021.01.13.426390.
# Amino acid sequences for entries named in this document (tags omitted). A change or cut given only in a name is not applied to a line headed by its entry. Chains listed by the source or under a name are the forms on record and can include a tag or linker. Residues count along the entry.
# AGR2 (human (endogenous in T47D, BT474, MDA-MB-468)) (O95994, residues 21-175): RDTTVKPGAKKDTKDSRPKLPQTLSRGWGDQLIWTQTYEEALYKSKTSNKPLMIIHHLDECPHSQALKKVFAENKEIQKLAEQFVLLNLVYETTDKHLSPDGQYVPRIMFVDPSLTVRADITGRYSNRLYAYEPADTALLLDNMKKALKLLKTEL
# C81S AGR2 active site mutant, enforced expression (O95994, form named): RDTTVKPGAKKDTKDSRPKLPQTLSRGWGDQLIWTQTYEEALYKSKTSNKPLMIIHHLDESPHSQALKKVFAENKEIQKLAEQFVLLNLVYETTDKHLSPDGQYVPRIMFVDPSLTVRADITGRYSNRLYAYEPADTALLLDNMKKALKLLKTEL
# UniProt P07237, residues 18-508: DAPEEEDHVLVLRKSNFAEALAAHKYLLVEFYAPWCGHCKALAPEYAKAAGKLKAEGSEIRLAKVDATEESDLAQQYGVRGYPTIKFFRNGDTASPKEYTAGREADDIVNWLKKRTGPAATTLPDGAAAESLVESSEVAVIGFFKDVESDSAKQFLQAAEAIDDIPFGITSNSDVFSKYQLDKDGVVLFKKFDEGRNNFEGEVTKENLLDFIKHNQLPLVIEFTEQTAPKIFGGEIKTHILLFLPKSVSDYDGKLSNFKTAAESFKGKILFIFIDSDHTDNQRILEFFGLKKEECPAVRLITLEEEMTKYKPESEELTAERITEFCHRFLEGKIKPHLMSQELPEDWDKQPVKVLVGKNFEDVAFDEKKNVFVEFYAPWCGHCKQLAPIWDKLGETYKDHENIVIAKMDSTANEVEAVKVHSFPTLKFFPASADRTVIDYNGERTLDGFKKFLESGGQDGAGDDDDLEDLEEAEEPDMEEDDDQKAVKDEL
# UniProt O00220, residues 24-468: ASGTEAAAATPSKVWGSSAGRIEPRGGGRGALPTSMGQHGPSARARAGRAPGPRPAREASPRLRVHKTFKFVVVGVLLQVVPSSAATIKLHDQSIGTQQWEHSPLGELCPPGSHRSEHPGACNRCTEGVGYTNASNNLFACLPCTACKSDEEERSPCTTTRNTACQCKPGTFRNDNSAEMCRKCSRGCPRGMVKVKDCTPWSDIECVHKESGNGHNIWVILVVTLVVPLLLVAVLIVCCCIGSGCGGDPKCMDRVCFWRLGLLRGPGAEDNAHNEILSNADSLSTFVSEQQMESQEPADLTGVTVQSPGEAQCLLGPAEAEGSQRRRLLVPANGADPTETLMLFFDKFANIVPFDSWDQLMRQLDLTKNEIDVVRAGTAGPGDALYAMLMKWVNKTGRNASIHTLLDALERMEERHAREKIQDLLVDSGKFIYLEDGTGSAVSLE
# UniProt Q9NZ08: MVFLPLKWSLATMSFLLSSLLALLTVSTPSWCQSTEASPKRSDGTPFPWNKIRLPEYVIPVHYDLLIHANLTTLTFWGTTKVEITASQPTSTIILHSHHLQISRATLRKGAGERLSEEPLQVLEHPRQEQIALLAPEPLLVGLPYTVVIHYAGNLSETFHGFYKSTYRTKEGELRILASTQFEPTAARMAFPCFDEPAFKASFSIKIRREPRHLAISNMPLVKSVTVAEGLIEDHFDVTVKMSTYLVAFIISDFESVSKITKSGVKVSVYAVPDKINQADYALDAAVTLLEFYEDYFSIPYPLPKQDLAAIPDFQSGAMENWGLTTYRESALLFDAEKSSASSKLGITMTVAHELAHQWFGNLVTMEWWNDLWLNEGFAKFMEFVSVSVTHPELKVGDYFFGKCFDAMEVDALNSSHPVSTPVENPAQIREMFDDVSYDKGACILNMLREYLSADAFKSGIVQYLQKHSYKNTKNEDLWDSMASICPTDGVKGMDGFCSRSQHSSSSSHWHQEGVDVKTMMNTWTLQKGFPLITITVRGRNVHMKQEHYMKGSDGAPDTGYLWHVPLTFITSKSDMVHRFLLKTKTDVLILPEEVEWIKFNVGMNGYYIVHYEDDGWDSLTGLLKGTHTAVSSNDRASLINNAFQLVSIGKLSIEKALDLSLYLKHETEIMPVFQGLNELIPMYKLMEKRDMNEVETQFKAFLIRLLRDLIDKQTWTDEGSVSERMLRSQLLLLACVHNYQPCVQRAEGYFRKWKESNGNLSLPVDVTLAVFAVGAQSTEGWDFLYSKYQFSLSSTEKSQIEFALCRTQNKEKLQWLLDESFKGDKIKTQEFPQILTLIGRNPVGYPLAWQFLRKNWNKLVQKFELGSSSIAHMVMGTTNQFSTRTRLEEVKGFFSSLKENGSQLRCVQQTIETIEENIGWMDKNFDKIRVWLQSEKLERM
# Substitutions are numbered along the chain they refer to. Results are given in words; binding and its absence hold for the method and conditions named. For part of these data: Binding seen in cells or lysates may run through a third protein. Some results given as binding are weak or reduced against the parent protein; the word gives no strength.
# Columns and labels:
# [1] = target: T1, ERp44 (human (endogenous in T47D, BT474, MDA-MB-468)) (UniProt Q9BS26); experiment: co-IP
# T1 sequence: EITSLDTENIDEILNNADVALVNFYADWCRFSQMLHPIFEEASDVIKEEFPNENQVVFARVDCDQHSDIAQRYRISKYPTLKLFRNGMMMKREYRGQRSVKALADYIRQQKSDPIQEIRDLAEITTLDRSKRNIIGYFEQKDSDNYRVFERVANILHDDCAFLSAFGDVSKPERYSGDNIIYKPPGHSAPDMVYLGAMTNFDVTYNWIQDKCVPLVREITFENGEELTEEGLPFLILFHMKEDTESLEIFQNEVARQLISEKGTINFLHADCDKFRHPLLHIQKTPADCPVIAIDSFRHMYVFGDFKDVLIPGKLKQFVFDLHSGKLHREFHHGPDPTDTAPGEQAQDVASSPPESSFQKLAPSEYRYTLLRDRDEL
# [2] = target: T2, wild type ERp44 (CXXS), enforced expression (UniProt Q9BS26); experiment: co-IP
# T2 sequence: T1 sequence
# [3] = target: AGR2 (human (endogenous in T47D, BT474, MDA-MB-468)) (UniProt O95994); experiment: co-IP
# [4] = target: C81S AGR2 active site mutant, enforced expression (UniProt O95994); experiment: non-reducing SDS-PAGE and immunoblot of disulfide-bonded complexes
# [5] = target: T3, S61C ERp44 mutant (CXXC) (UniProt Q9BS26); experiment: as above
# T3 sequence: T1 sequence with S32C
# [6] = target: T2, wild type ERp44 (CXXS), enforced expression; experiment: as above
# [7] = target: T4, C58S ERp44 active site mutant (SXXS) (UniProt Q9BS26); experiment: as above
# T4 sequence: T1 sequence with C29S
substance,measurement,setting,value
PDIA1 (from UniProt P07237 18-508),binding,[1],binds
same,binding,[2],binds
same,binding,[3],binds
Death Receptor 4 (from UniProt O00220 24-468),binding,[1],binds
doxycycline-inducible DR4 (from UniProt O00220 24-468) (receptor),binding,[1],binds
"C81S AGR2 active site mutant, enforced expression (from UniProt O95994 21-175)",binding,[4],no binding
ER Aminopeptidase 1 (from UniProt Q9NZ08 1-941) (enzyme),binding,[5],binds
same,binding,[6],binds
same,binding,[7],no binding
